Measured values reported in patent US20180044686A1, “TOOLS AND METHODS FOR USING CELL DIVISION LOCI TO CONTROL PROLIFERATION OF CELLS” (Sinai Health System, priority 2015, published 2018).
At least one structure is not confirmed: it was looked up by name or label, or the drawing left a doubt.

System: EARC (dox-bridge)-modified mouse ES cells
Assay: Escaper test of dox-bridged ES cells with GFP-positive sentinel cells
Assay type: cell-based
Settings: doxycycline withdrawn; 100,000,000 cells

Q: How did the escapee cells turn out when `C[C@H]1c2cccc(O)c2C(=O)C2=C(O)[C@]3(O)C(=O)C(C(N)=O)=C(O)[C@@H](N(C)C)[C@@H]3[C@@H](O)[C@@H]21` [doxycycline] was run?
A: no escapee dox-bridged ES cells among the 100,000,000 cells
